Each structure is given as a SMILES string. Counter-ions that a name gives are not always drawn. The list shows a part of the results. Repeats in this data set agree poorly, so a single value says little.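 Test system: Schistosoma mansoni schistosomula, roughly 40 per well, imaged in bright field over time and compared with wells given 0.1% DMSO. Distance read-out: the paper calls a drug a hit when its Mahalanobis distance is at least 2.47, three standard deviations above the DMSO control mean. Degeneracy is the share of worms classified opaque.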

The subject of the assay is Schistosoma mansoni schistosomula. Nature of the assay: Mahalanobis distance of static-rate-frequency phenotype descriptors from DMSO controls (dimensionless); higher = stronger phenotypic change versus DMSO. To be noted: 10 µM; 72 h.
On to `NC(N)=O`, for which the Mahalanobis distance was active: 2.66.

Regarding `CCOc1ccccc1OCCNC(C)Cc1ccc(OC)c(S(N)(=O)=O)c1` (stereo unspecified) [Amsulosin], the Mahalanobis distance was inactive: 2.16.

Consider `CC1=C(CC(=O)O)c2cc(F)ccc2/C1=C\c1ccc([S+](C)[O-])cc1` (stereo unspecified) [Sulindac], for which the Mahalanobis distance was inactive: 1.44.

With `CCCCC(=O)O[C@]1(C(=O)CO)CC[C@H]2[C@@H]3CCC4=CC(=O)CC[C@]4(C)[C@H]3[C@@H](O)C[C@@]21C` [Hydrocortisone Valerate], the Mahalanobis distance was inactive: 1.7.

With `CCc1cccc2c3c([nH]c12)C(CC)(CC(=O)O)OCC3` (stereo unspecified) [Etodolac], the Mahalanobis distance is inactive: 1.4.

As for `Cc1noc(NS(=O)(=O)c2ccc(N)cc2)c1C` [Sulfisoxazole], the Mahalanobis distance was inactive: 1.98.

In the case of `C[C@]12CC[C@@H]3c4ccc(O)cc4CC[C@H]3[C@@H]1C[C@@H](O)[C@@H]2O` [Estriol], the Mahalanobis distance was inactive: 1.22.

Regarding `Cn1nnnc1SCC1=C(C(=O)O)N2C(=O)[C@@H](NC(=O)[C@H](OC=O)c3ccccc3)[C@H]2SC1` [Cefamandole Nafate], the Mahalanobis distance was inactive: 2.16.

In the case of `CCCCC(CC)CN=C(N)N=C(N)NCCCCCCNC(N)=NC(N)=NCC(CC)CCCC` (stereo unspecified) [Alexidine Hydrochloride], the Mahalanobis distance is inactive: 2.11.

`CC(=O)Oc1c(C)c(C)c2c(c1C)CCC(C)(CCCC(C)CCCC(C)CCCC(C)C)O2` (stereo not drawn) [Alpha-tochopheryl Acetate]: the Mahalanobis distance was inactive: 1.68.

As to `C=CC1=C(C(=O)O)N2C(=O)[C@@H](NC(=O)/C(=N\OCC(=O)O)c3csc(N)n3)[C@H]2SC1` [Cefixime], the Mahalanobis distance is inactive: 2.4.

For the compound `OCCOCCN1CCN(C(c2ccccc2)c2ccc(Cl)cc2)CC1` (stereo unspecified) [Hydroxyzine], the Mahalanobis distance was active: 3.07.

Turning to `CC(C)COC(=O)c1ccc(N)cc1` [Isobutamben], the Mahalanobis distance was active: 4.67.

`Cc1ccccc1N1C(=O)c2cc(S(N)(=O)=O)c(Cl)cc2NC1C` (stereo unspecified) [Metolazone]: the Mahalanobis distance is inactive: 1.84.

`Cc1cc(-n2c(=O)[nH]c(=O)n(C)c2=O)ccc1Oc1ccc(SC(F)(F)F)cc1` [Toltrazuril]: the Mahalanobis distance was active: 3.15.

Turning to `O=NN(CCCl)C(=O)NC1CCCCC1` [Lomustine], the Mahalanobis distance was active: 7.24.

Regarding `COc1ccccc1O` [Guaiacol], the Mahalanobis distance is inactive: 1.86.

As to `CCCCC(C)(O)C/C=C/[C@H]1[C@H](O)CC(=O)[C@@H]1CCCCCCC(=O)OC` (mixture of isomers) [Misoprostol], the Mahalanobis distance was inactive: 2.12.

On to `COc1cnc(NS(=O)(=O)c2ccc(N)cc2)nc1` [Sulfameter], for which the Mahalanobis distance was inactive: 1.99.

As to `O=C(O)CCC(=O)Nc1ccc(S(=O)(=O)Nc2nccs2)cc1` [Succinylsulfathiazole], the Mahalanobis distance is inactive: 1.52.

With `CN(C)[C@@H]1C(O)=C(C(N)=O)C(=O)[C@@]2(O)C(O)=C3C(=O)c4c(O)ccc(Cl)c4[C@@](C)(O)[C@H]3C[C@@H]12` [Chlortetracycline], the Mahalanobis distance was active: 2.9.

Turning to `O=C1OC2(c3ccc(O)cc3Oc3cc(O)ccc32)c2ccccc21` [Fluorescein], the Mahalanobis distance was inactive: 2.43.

For the compound `CN1[C@@H](CC(=O)c2ccccc2)CCC[C@H]1C[C@H](O)c1ccccc1` [Lobeline], the Mahalanobis distance is inactive: 2.18.

For `OC[C@@H](O)[C@@H](O[C@@H]1O[C@H](CO)[C@H](O)[C@H](O)[C@H]1O)[C@H](O)[C@@H](O)CO` [Lacitol], the Mahalanobis distance was inactive: 1.86.

With `OC[C@@H](O)[C@@H](O[C@@H]1O[C@H](CO)[C@H](O)[C@H](O)[C@H]1O)[C@H](O)[C@@H](O)CO` [D-lactitol Monohydrate], the Mahalanobis distance is inactive: 1.71.

`COc1ccc(C(=O)c2ccc(C)cc2)c(O)c1` [Mexeneone]: the Mahalanobis distance is active: 2.85.

Turning to `NC(=O)NC(=O)Cc1ccccc1` [Phenacemide], the Mahalanobis distance was inactive: 1.11.

Regarding `CC(=O)[C@H]1CC[C@H]2[C@@H]3C[C@H](C)C4=CC(=O)CC[C@]4(C)[C@H]3[C@@H](O)C[C@]12C` [Medrysone], the Mahalanobis distance is inactive: 2.15.

`CCOC(=O)OC(C)OC1=C(C(=O)Nc2ccccn2)N(C)S(=O)(=O)c2ccccc21` (stereo unspecified) [Ampiroxicam]: the Mahalanobis distance is inactive: 2.24.

With `O=C(O)c1cc(-c2ccc(F)cc2F)ccc1O` [Diflunisal], the Mahalanobis distance is inactive: 1.88.

In the case of `CCCCNC(=O)NS(=O)(=O)c1ccc(C)cc1` [Tolbutamide], the Mahalanobis distance was inactive: 1.45.

`CC(C)(C)NC[C@H](O)c1ccc(O)c(CO)c1` [Levalbuterol Hydrochloride]: the Mahalanobis distance is inactive: 1.48.

With `O=S(=O)(O)CCS` [Mesna], the Mahalanobis distance was inactive: 1.73.

As for `CCn1cc(C(=O)O)c(=O)c2cnc(N3CCCC3)nc21` [Piromidic Acid], the Mahalanobis distance is inactive: 2.

Regarding `CCCCCCCCCCCCC[N+](C)(C)Cc1ccccc1` [Benzalkonium Chloride], the Mahalanobis distance is active: 3.27.

As to `CC(=O)Nc1ccc(CC(=O)O)cc1` [Actarit], the Mahalanobis distance is inactive: 1.6.

For `Cc1nc2n(c(=O)c1CCN1CCC(c3noc4cc(F)ccc34)CC1)CCCC2` [Risperidone], the Mahalanobis distance is inactive: 1.31.

For the compound `CC(=O)OCC(=O)[C@@]12N=C(C)O[C@@H]1C[C@H]1[C@@H]3CCC4=CC(=O)C=C[C@]4(C)[C@H]3[C@@H](O)C[C@@]12C` [Deflazacort], the Mahalanobis distance was active: 2.47.

`OCc1cc(C(O)CNCCCCCCOCCCCc2ccccc2)ccc1O` (stereo unspecified) [Salmeterol]: the Mahalanobis distance was active: 3.14.

In the case of `CCCCOc1cc(C(=O)NCCN(CC)CC)c2ccccc2n1` [Dibucaine], the Mahalanobis distance was active: 3.55.

Take `CC[C@H]1OC(=O)[C@H](C)C(=O)[C@H](C)[C@@H](O[C@@H]2O[C@H](C)C[C@H](N(C)C)[C@H]2O)[C@](C)(OC)C[C@@H](C)C(=O)[C@H](C)[C@H]2N(CCCCn3cnc(-c4cccnc4)c3)C(=O)O[C@]12C` [Telithromycin]: the Mahalanobis distance is active: 2.48.

On to `O=P(O)(O)C(Cl)(Cl)P(=O)(O)O` [Clodronic Acid], for which the Mahalanobis distance is inactive: 1.57.

As to `O=C1CCc2cc(OCCCCc3nnnn3C3CCCCC3)ccc2N1` [Cilostazol], the Mahalanobis distance was active: 2.64.

Consider `CCS(=O)(=O)CCn1c([N+](=O)[O-])cnc1C` [Tinidazole], for which the Mahalanobis distance was inactive: 2.17.

Regarding `CC(C)NCC(O)COc1cccc2ccccc12` (stereo unspecified) [Propranolol], the Mahalanobis distance is inactive: 2.1.

For the compound `COC(=O)[C@@H]1[C@H]2C[C@H]3c4[nH]c5ccccc5c4CCN3C[C@@H]2CC[C@@H]1O` [Yohimbine Hydrochloride], the Mahalanobis distance is active: 3.17.

Consider `COC(=O)[C@@H]1[C@H]2C[C@H]3c4[nH]c5ccccc5c4CCN3C[C@@H]2CC[C@@H]1O` [Yohimbine], for which the Mahalanobis distance is active: 3.54.

With `CC1(C)NC(=O)N(c2ccc([N+](=O)[O-])c(C(F)(F)F)c2)C1=O` [Nilutamide], the Mahalanobis distance is inactive: 1.77.

Regarding `CCCCOC(=O)c1ccc(N)cc1` [Butamben], the Mahalanobis distance is inactive: 1.96.

As for `O=C(Nc1ccc(C(=O)O)c(O)c1)c1ccccc1` [Benzoylpas], the Mahalanobis distance is inactive: 1.8.

As to `CCCCC1=NC2(CCCC2)C(=O)N1Cc1ccc(-c2ccccc2-c2nnn[nH]2)cc1` [Irbesartan], the Mahalanobis distance is inactive: 2.09.

Regarding `CC[C@H]1OC(=O)[C@H](C)[C@@H](O[C@H]2C[C@@](C)(OC)[C@@H](O)[C@H](C)O2)[C@H](C)[C@@H](O[C@@H]2O[C@H](C)C[C@H](N(C)C)[C@H]2O)[C@](C)(OC)C[C@@H](C)C(=O)[C@H](C)[C@@H](O)[C@]1(C)O` [Clarithromycin], the Mahalanobis distance is inactive: 2.15.

As to `CC(Cc1ccccc1)(NC(=O)CN)c1ccccc1` (stereo unspecified) [Remacemide Hydrochloride], the Mahalanobis distance is active: 2.65.

For the compound `COc1ccc(Cc2cnc(N)nc2N)cc1OC` [Diaveridine], the Mahalanobis distance is active: 2.89.

For the compound `O=C(O)c1cc(=O)c2ccccc2o1` [Chromocarb], the Mahalanobis distance was inactive: 1.61.

As for `S=C1SCN(Cc2ccccc2)CN1Cc1ccccc1` [sulbentine], the Mahalanobis distance was inactive: 1.74.

For `COc1cc(C(=O)NS(=O)(=O)c2ccccc2C)ccc1Cc1cn(C)c2ccc(NC(=O)OC3CCCC3)cc12` [Zafirlukast], the Mahalanobis distance is active: 2.83.

As to `CN[C@H](CC(C)C)C(=O)N[C@H]1C(=O)N[C@@H](CC(N)=O)C(=O)N[C@H]2C(=O)N[C@H]3C(=O)N[C@H](C(=O)N[C@H](C(=O)O)c4cc(O)cc(O)c4-c4cc3ccc4O)[C@H](O)c3ccc(c(Cl)c3)Oc3cc2cc(c3O[C@@H]2O[C@H](CO)[C@@H](O)[C@H](O)[C@H]2O[C@H]2C[C@](C)(N)[C@H](O)[C@H](C)O2)Oc2ccc(cc2Cl)[C@H]1O` [Vancomycin Hydrochloride], the Mahalanobis distance is inactive: 2.29.

For the compound `CN[C@H](CC(C)C)C(=O)N[C@H]1C(=O)N[C@@H](CC(N)=O)C(=O)N[C@H]2C(=O)N[C@H]3C(=O)N[C@H](C(=O)N[C@H](C(=O)O)c4cc(O)cc(O)c4-c4cc3ccc4O)[C@H](O)c3ccc(c(Cl)c3)Oc3cc2cc(c3O[C@@H]2O[C@H](CO)[C@@H](O)[C@H](O)[C@H]2O[C@H]2C[C@](C)(N)[C@H](O)[C@H](C)O2)Oc2ccc(cc2Cl)[C@H]1O` [Vancomycin], the Mahalanobis distance is inactive: 1.61.

For the compound `O=C(CCCl)NCc1ccccc1` [Beclamide], the Mahalanobis distance is inactive: 1.5.

As to `C=NC(C(=O)NC1C(=O)N2C1SC(C)(C)C2C(=O)O)c1ccccc1` (stereo unspecified) [Metampicillin Sodium], the Mahalanobis distance is inactive: 1.6.

For the compound `CC(C)COCC(CN(Cc1ccccc1)c1ccccc1)N1CCCC1` (stereo unspecified) [Bepridil Hydrochloride], the Mahalanobis distance is inactive: 1.55.

`CC[C@@]1(O)C(=O)OCc2c1cc1n(c2=O)Cc2cc3c([N+](=O)[O-])cccc3nc2-1` [Rubitecan]: the Mahalanobis distance was inactive: 1.31.

Turning to `CCC(CC)(CC(=O)Nc1cccc(/C=C/c2nc(C3CCC3)cs2)c1)C(=O)O` [Cinalukast], the Mahalanobis distance is inactive: 1.56.

For `CN(C)CCC=C1c2ccccc2CCc2ccccc21` [Amitriptyline], the Mahalanobis distance was inactive: 2.38.

With `CS(=O)(=O)c1ccc(C2=C(c3ccccc3)C(=O)OC2)cc1` [Rofecoxib], the Mahalanobis distance was inactive: 1.88.

The record behind these values is the supplement of paper PMC7752906.
